Assay results reported in PubChem BioAssay AID1347423 (Functional Genomics Laboratory (NCATS/FGL), 2020).
Hit rate of the full screen: of about 52,000 sequences, about 210 (0.4%) were called active.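 How the source made its calls: active means gene whose silencing raises cell survival under the drug, median off-target-corrected z-score across its silencing RNAs 2 or more; inactive means the rest.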 The list shows a part of the results.

experiment: Resistance to Poly (ADP-Ribose) Polymerase inhibitor: Gene Identification via Genome-wide siRNA Screen; conditions: mouse BRCA2 R2336H ES cells, olaparib, CellTiter-Glo viability; stronger effect = higher value
Description: The role of Poly (ADP-Ribose) Polymerase (PARP) proteins in DNA repair has been elegantly utilized for the synthetic lethality-based treatment of BRCA-deficient tumors by PARP inhibitors. PARP inhibitors are now being used for treatment of BRCA-deficient breast and ovarian cancers. […] While several mechanisms of drug resistance have been identified, majority of these tumors develop drug resistance due to unknown causes. To identified novel regulators of chemo-resistance in BRCA2-mutated cells, we performed a genome wide siRNA library screen. We have found ES cells expressing a hypomorphic allele of BRCA2 to be hypersensitive to PAPP inhibitors (such as olaparib). We used ES cells expressing a mutant allele of BRCA2 that has a single amino acid substitution at position 2336 (arginine to histidine, R2336H). The screen was conducted using an Ambion (Thermo) Silencer Mouse Genome siRNA collection. The library targets 17,575 mouse genes with 3 siRNAs per gene. TET2 (E130014J05Rik) was identified as a top candidate.
Transfections were performed in 384 well plates (Corning 3707). Plates were coated with 0.1% gelatin in H2O overnight at ambient temperature. Gelatin solution was aspirated (BioTek EL406) and siRNAs were printed using a Bravo VPrep liquid handler integrated within a BioCel automation platform (Agilent). Cell viability was measured using CellTiter Glo (Promega). For transfections, […] of serum free media containing Lipofectamine RNAiMax […] was added to wells containing siRNA (0.8pmol). Lipid and siRNA were allowed to complex for 45 min at ambient temperature before addition of 1000 cells in DMEM, 30% FBS to yield final transfection mixtures containing 20 nM siRNA in DMEM, 15% FBS. PARPi (olaparib, AZD2281) was added 48 h post-transfection (500 nM) and viability (CellTiter Glo, Promega) was assayed 72 h later on a PerkinElmer Envision 2104 Multilabel plate reader. Ambion Silencer Select Negative Control #2 was incorporated on all screening plates (16 wells) and the median negative control value on each plate was used for normalization. An siRNA targeting Trp53 was used as a positive control. This control yielded a median protective effect of ~1.9 fold versus negative control throughout the screen. The median absolute deviation (MAD) based z-score was calculated for each siRNA. Genes were then ranked by taking the median value for all siRNAs tested against a given gene. Scores were also adjusted for seed-based off-target effects to help deprioritize likely false positives.

Sequence	z-score
GGCCAACACUGAUACCAAATT against Plau	inactive: 2.42
GGAGAUGGCUUCUCUCUCGTT against Rarg	active: 1.37
GGACCUGGAUUUGUGCUUUTT against 2010002N04Rik	inactive: 0.185
GGUGACAAUAAAAUGGUGATT against Fabp1	inactive: 0.496
GGAAAGAUUGUUUGAAGGCTT against Cask	inactive: -1.08
CCAGUUGUGCAAUCAACAATT against 1110006G06Rik	inactive: 0.345
GGAGAAGACAUGUUAAUAATT against Aox1	inactive: -0.486
GGUCUUCAGCAGUCAUCAGTT against Sprr2d	inactive: 0.0558
GGCUUCAGCCAGAGUUCAGTT against Zfp239	inactive: 0.365
GGAUGUGUUAUCGGUGCUCTT against bM64F17.1	inactive: 4.24
GGGUGUUCUAAGUAGUCGCTT against Cdk3	inactive: -0.333
GGAUCCUCUUCUAUCUUUATT against Pycr1	inactive: 0.568
CCAGUGACAUUCAAUACCUTT against 4933421E11Rik	inactive: -0.676
GGCUCAAAUGGUCACCAAUTT against 1700060E18Rik	inactive: 0.193
GCUUAUAUGGCCUGAGAGATT against AI316787	inactive: -0.634
GGAUAAGAUAAUGUCUGUGTT against Olfr716	inactive: -2.47
GGUUCUUGAAACACUUUACTT against 0610039P13Rik	inactive: 0.209
GCCAGUGGUAUGAGCUUGUTT against Dullard	inactive: 0.245
GCGUAUCUGAUUGACAGAGTT against Kctd2	inactive: 1.15
GCUAUUGAGUCGUGAGACUTT against Apoc3	inactive: -2.39
GGUUUGACUAACUUUCCUUTT against Fbxl15	inactive: 0.192
CCAUAACCAACGUGUUCGUTT against Adrb3	inactive: 1.3
GGUUACCUCCACCAGAUCATT against Avpi1	inactive: -2.35
GCUAACAAAUGUCAGCAUGTT against Popdc3	inactive: 0.884
CCACACCUUCAAAGCGAGATT against D930040M24Rik	inactive: 0.276
GGAAUCUGGGCUCUUACACTT against Tcfap2a	inactive: 1.61

Sequence	z-score
GGCUGAAGUUCAUGAUGGCTT against Cd209d	inactive: 0.683
CCUAUGUAUGUCAACAUACTT against 1700028P14Rik	inactive: -0.0328
GGAGAAGAAACUGAACCUGTT against Ppan	inactive: 0.184
GCUAUGAAGCAAUUGUGGATT against Fasn	inactive: 0.546
GCUUUGAUUUAUGAGGUCATT against 4930506L13Rik	inactive: -1.82
GGAAAGUGUUCUCUACAUGTT against Olfr1093	inactive: 0.077
GGUGGAAUUUACAUAAUGATT against Igsf11	inactive: -0.629
GGUGUUAGAAGUCAACGGUTT against Pard6b	inactive: 0.00297
GGGAUACAUCUAUUGAAUCTT against BC021442	inactive: 0.501
GCUGAGUUGGCUCAUCAACTT against Fbxl10	inactive: -0.09
CCUGAAAGAUGCUCUCUAUTT against Inpp4b	inactive: 1.25
GGCUGUUCAAAAAUUUCGGTT against Sox17	inactive: -0.703
CCGAAUUUCCAAAAAUGCATT against Foxd3	inactive: -0.486
CCCUAGGGUGAUGAAGCAUTT against Ckmt2	inactive: 0.274
GGGCAAACUCAUUUUUUGATT against F10	inactive: 0.315
GGGUCUUAUGGAAGUGUUUTT against Stk3	inactive: 1.08
GGGAAUACUGUGAACACCGTT against LOC245297	inactive: 1.73
GGAAUUCUCUCAGCAGAAGTT against 1110038F14Rik	inactive: -1.88
GAUAUGUGUACACUUCUGCTT against V1ri5	inactive: 0.234
GGCCCACGUCCUGUACAUUTT against Tdrd1	inactive: 1.24
GGGUUAUAGGUGUGUGUGCTT against Gemin6	inactive: 0.258
CCGGAAAAUGCUACUGAAATT against Pcdhb10	inactive: 0.424
GCUCUAGUUCUGUAAAGUGTT against D630004N19Rik	inactive: -0.755
GGAACAGAUAAAGAGGGAATT against Zfp326	inactive: -1.75
GGUUAAAAUUGGCUAAAUGTT against 6030405A18	inactive: -0.201
CGUGUAAAAGCCGGAUUGATT against 1500015L24Rik	inactive: 0.909

Sequence	z-score
GGCAUUCUCCACGUGCUCUTT against Olfr273	inactive: -0.846
GGGCUCGAAUCCAUCACAGTT against Pcdhb6	inactive: -0.5
GCAUUCUGAAGCUUCCAUCTT against Olfr1112	inactive: 0.505
GGGUUUCCUGGAUUCUCAUTT against E030006K04Rik	inactive: 0.0254
GGAAGUCUCAGACCACAACTT against Ech1	inactive: -1.02
GCCAAGGAUGCAGAUAUCGTT against AW491445	inactive: 0.565
CGGUGUUCGCUUUUCAGAATT against 2010013E08Rik	inactive: 0.494
CGUAGUCGAUUCAGGAGAGTT against LOC382243	inactive: -0.483
CCAUUAGGAUGACCUCCAUTT against Slc38a3	inactive: 0.523
GUGGAUUAGGGAAUUUCAUTT against Mrgprb1	inactive: -0.48
GCCUGAAAAGUUUAAACUCTT against Nalp9b	inactive: 0.438
GGAAACAAAAAGAAUGCUGTT against Apex1	inactive: 0.248
GGUUGUUAGAGGUAAUUUGTT against Zfp128	inactive: 0.346
CCUUCAACUCCUCACUUCCTT against H2-D1	inactive: 0.583
GGUACAUCUAUUUCUUGUUTT against Ncam2	inactive: -0.59
GGUCAAGCAAGUGUUGGUUTT against Gart	inactive: -0.808
GGCAACUUGGGAGUUUCACTT against Kcnab1	inactive: 1.3
GGUACACAGCAGUGGUCAUTT against Drd3	inactive: 0.0272
GGUUUUUAACCAAACAUGATT against Actr3	inactive: 0.126
GGUCAACAACAACUCCGUUTT against Ret	inactive: -0.944
GGAAUUUUAGCGGAUGAUATT against Smarca3	active: 1.54
CCUCAAUUCGGACAAGCUGTT against Scnn1a	inactive: -0.931
GGGAAAGAAAGGGUACAAUTT against D430033A06Rik	inactive: 0.0745
GGAAAAAUGUGCUGUGUGGTT against Tcea1	inactive: -0.239
GAGCCUUUCCUUUCUGGACTT against Olfr466	inactive: 0.551
GCAGUGGGAAUCGAUAAAGTT against Fgfr2	inactive: -0.186

Look-ups from the results shown.
In z-score, GCCUGAAAAGUUUAAACUCTT against Nalp9b has the entry inactive: 0.438
In z-score, GGUUUUUAACCAAACAUGATT against Actr3 has the entry inactive: 0.126
In z-score, CCUCAAUUCGGACAAGCUGTT against Scnn1a has the entry inactive: -0.931
In z-score, GUGGAUUAGGGAAUUUCAUTT against Mrgprb1 has the entry inactive: -0.48
In z-score, GGCAUUCUCCACGUGCUCUTT against Olfr273 has the entry inactive: -0.846
In z-score, GGAAGUCUCAGACCACAACTT against Ech1 has the entry inactive: -1.02

(further entries)

Sequence	z-score
GGUCAUCUCCUAUGGAAAUTT against C030004A17Rik	inactive: 1.23
GGGUCACCAUCAAGAUGGATT against Erg	inactive: -0.867
GGUGCAUAAAACCCUUAAATT against Rbms1	inactive: -0.239
GGCUUGCUAAAGGAUGGGATT against Adck4	inactive: -0.769
GGAGAAUGUUUUUGACUGGTT against BC024997	inactive: 0.154
CCAUAUAACUGCCAAUAAUTT against 4930532L20Rik	inactive: -0.458
CAUGGUUUUUAGAGACAAUTT against Olfr774	inactive: -0.67
CGAAGUACCUGAAUUUUGCTT against Pde6b	inactive: -0.682
GCCACUCUAUGUGAACACATT against Hmgb2l1	inactive: 1.01
GGAAGGAGAUUACAUUGUUTT against Rhpn2	inactive: 0.407
GCUCCUGAACUAAUACAAGTT against Melk	inactive: -1.08
GGAAAAUGGAAUCUUCGGUTT against 4933435A13Rik	inactive: 1.31
GGCAUUUCUUCAAAGCUGATT against 9430083I22	inactive: -1.25
GGAAAGCAAAAAGUUUCAGTT against C030004A17Rik	inactive: 0.798
GGAACUUUUUAAGAUGCGUTT against Ranbp1	inactive: 0.484
GGCAGACUCUGCCUACUUATT against Utf1	inactive: 0.133
GGAUGGACAACAUCAAACATT against Ltbp2	inactive: 1.13
GGAACUACUUUGAGAGCACTT against Arl2	inactive: -1.18
CCAAAGGAAUGCGUUUUACTT against Msh2	inactive: 1.78
CGAUGUACUCCAUGUUGGGTT against Bpil3	inactive: 0.145
CCGGAAGAUCAAUAUAAGATT against Crisp2	inactive: 0.925
GGCUAUUGUUUCAUCCUGATT against Emp1	inactive: -0.569
CGGAAUGAUCUAGAAAAUATT against B130017I01Rik	inactive: 1.03
GCUAAACAGAACAGGUUGUTT against Gp38	inactive: -0.112
GGCCAGCUCUCUUUUGCUATT against Cflar	inactive: 0.643
GGAAAAAAGGUCUGUAAAUTT against 4930522D07Rik	inactive: -0.442
